Assay results as given in US8822378B2, “N-(tetrazol-5-yl)- and N-(triazol-5-yl)arylcarboxamides and use thereof as herbicides” (Bayer Intellectual Property GmbH, priority 2011, dated 2014).
Some results were stated once for a whole list of compounds, not compound by compound.

How the values were obtained:
Assay type in all cases: in vivo
Veronica persica [1] = test: Pre-emergence herbicidal action against harmful plants; conditions: 320 g/ha, visual assessment after 3 weeks vs untreated controls (100% = plants died)
Matricara inodora [2] = test: Post-emergence herbicidal action against harmful plants; conditions: 80 g/ha, treated at one-leaf stage, rated visually after about 3 weeks vs untreated controls
Stellaria media [3] = test: Pre-emergence herbicidal action against harmful plants; conditions: 320 g/ha, visual assessment after 3 weeks vs untreated controls (100% = plants died)
Amaranthus retroflexus = test: as above; conditions: 320 g/ha, visual assessment after 3 weeks vs untreated controls (100% = plants died)
Viola tricolor [4] = test: Post-emergence herbicidal action against harmful plants; conditions: 80 g/ha, treated at one-leaf stage, rated visually after about 3 weeks vs untreated controls
Veronica persica [5] = test: as above; conditions: 80 g/ha, treated at one-leaf stage, rated visually after about 3 weeks vs untreated controls
Abutilon theophrasti [6] = test: as above; conditions: 80 g/ha, treated at one-leaf stage, rated visually after about 3 weeks vs untreated controls
Viola tricolor [7] = test: Pre-emergence herbicidal action against harmful plants; conditions: 320 g/ha, visual assessment after 3 weeks vs untreated controls (100% = plants died)
Matricara inodora [8] = test: as above; conditions: 320 g/ha, visual assessment after 3 weeks vs untreated controls (100% = plants died)
Pharbitis purpureum = test: Post-emergence herbicidal action against harmful plants; conditions: 80 g/ha, treated at one-leaf stage, rated visually after about 3 weeks vs untreated controls
Abutilon theophrasti [9] = test: Pre-emergence herbicidal action against harmful plants; conditions: 320 g/ha, visual assessment after 3 weeks vs untreated controls (100% = plants died)
Stellaria media [10] = test: Post-emergence herbicidal action against harmful plants; conditions: 80 g/ha, treated at one-leaf stage, rated visually after about 3 weeks vs untreated controls

Measured: herbicidal activity in percent

Cc1c(C(=O)Nc2nnnn2CCOCc2ccccc2)ccc(C(F)(F)F)c1S(C)(=O)=O [Compound 2-4]
at least 90%: all assays above

COC(C)(C)Cn1nnnc1NC(=O)c1ccc(C(F)(F)F)c(S(C)(=O)=O)c1C [Compound 2-5]
at least 90%: all assays above

COCCCn1nnnc1NC(=O)c1ccc(C(F)(F)F)c(S(C)(=O)=O)c1C [Compound 2-6]
at least 90%: all assays above

COC(C)Cn1nnnc1NC(=O)c1ccc(C(F)(F)F)c(S(C)(=O)=O)c1C (stereo not drawn) [Compound 2-19]
at least 90%: all assays above

COCCn1nnnc1NC(=O)c1ccc(C(F)(F)F)nc1C [Compound 3-2]
at least 90%: all assays above
